Reference: PubChem BioAssay AID2685 (National Center for Advancing Translational Sciences (NCATS), 2010)
The list shows a part of the results. These are further read-outs of the screen, such as a control signal, another cell line or another target. No call is given for them. Most of these compounds were active or inconclusive in the main read-out, so they are no random draw. Words in brackets tell the shape of the fitted curve; partial curves, single points and poor fits give uncertain potencies.

Assay: qHTS Assay for Lipid Storage Modulators in Drosophila S3 Cells;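 as to cell number change: cells counted by Cell Tracker Red CMTPX staining in the red channel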
Conditions: BODIPY lipid droplet fluorescence, 18-24 h; for cell number change: measured here: cell count max response, cells fed with added oleic acid
In short: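 Drosophila S3 cells got compounds at several concentrations plus oleic acid (400 uM solution). Laser-scanning cytometry with 488 nm excitation read lipid droplets at 500-530 nm and cells at 575-640 nm. Percent activity was relative to 20 uM Triacsin C.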

[1] = measured here: cell number channel AC50, cells fed with added oleic acid
[2] = measured here: lipid fluorescence (Fed channel) AC50, cells fed with added oleic acid

SMILES | cell number change | AC50 [1] | AC50 [2]
CN(c1ccc(OCC(=O)OCC(=O)c2c(N)n(C)c(=O)n(C)c2=O)cc1)S(=O)(=O)c1ccc2ccccc2c1 | 7.45% |  | 
Cc1ncc(CO)c(/C=N/NC(=O)c2cc3c(s2)CCCC3)c1O | 55.1% | 11.6 µM [rising, partial curve] | 0.731 µM [rising, single point]
O=C(Nc1ccc2c(c1)OCO2)OCc1ccccc1 | 1.86% |  | 0.517 µM [rising, partial curve]
CCCOc1nc(SCCC)nc2c1cnn2-c1ccccc1 | 86.6% | 16.4 µM [rising, partial curve] | 29.1 µM [rising, single point]
CCOc1ccc(NC(=O)NC(C)CC)cc1 (stereo not given) | 18.3% | 0.164 µM [falling, full curve, poor fit] | 
Cc1ccc(C(=O)NC(=S)NCC2CCCO2)cc1[N+](=O)[O-] (stereo not given) |  |  | 0.501 µM [rising, single point]
Cc1cc2n(n1)C(c1cccs1)Nc1ccccc1-2 (stereo not given) | -8.76% |  | 6.51 µM [rising, single point]
O=C(COc1ccc(-n2cnnn2)cc1)Nc1cc(Cl)cc(Cl)c1 | 18% |  | 
Cc1ccc(C(=O)Nc2cccc(S(=O)(=O)N(C)c3ccccc3)c2)o1 | 3.42% |  | 3.66 µM [rising, partial curve]
CCN(C(=O)C1=COCCO1)c1nc2c(C)cccc2s1 |  |  | 2.59 µM [rising, single point]
O=C(NCc1ccco1)c1ccc2ccccc2n1 | 18.5% |  | 0.92 µM [rising, full curve, poor fit]
O=C(c1ccc(COc2ccccc2[N+](=O)[O-])o1)N1CCCCCC1 | -20.6% |  | 
COc1ccc(S(=O)(=O)N(C)C)cc1NC(=O)c1ccc2c(c1)NC(=O)C(C)S2 (stereo not given) | -19.7% |  | 4.61 µM [falling, full curve, poor fit]
Cc1cc2occ(CC(=O)NC3=NCCS3)c2cc1C(C)C | 1.34% |  | 
Cc1nc2ccccc2c2c1C(=O)N(c1cccc(C(=O)O)c1)C2=O | -8.47% |  | 
CCOC(=O)N1CCN(C(=O)CCN2C(=O)/C(=C\c3ccccc3OC)SC2=S)CC1 | -8.17% |  | 2.31 µM [rising, partial curve]
Cc1csc(NC(=O)c2sc3nc(-c4cccs4)ccc3c2N)n1 | -46.1% |  | 29.1 µM [falling, partial curve]
O=C(N/N=C/C1CCCCC1)c1cc(Cl)ccc1O | 12.3% |  | 29.1 µM [rising, single point]
COC(=O)[C@@H](NC(=O)Nc1cccc(Br)c1)C(C)C | 56.4% | 29.1 µM [rising, single point] | 0.82 µM [falling, full curve, poor fit]
O=C(NCc1ccc(F)cc1)c1noc2c1CCCC2 | 44.1% | 0.092 µM [rising, full curve, poor fit] | 25.9 µM [rising, partial curve]

SMILES | cell number change | AC50 [1] | AC50 [2]
CCc1ccc(S(=O)(=O)Nc2ccc(-c3nc4cccnc4s3)cc2)s1 | 41% | 20.6 µM [rising, partial curve, poor fit] | 6.51 µM [rising, single point]
CCOC(=O)NC(=O)/C(C#N)=N/Nc1c(F)cccc1F | 14.5% |  | 0.731 µM [falling, single point]
Cc1ccccc1OCCCN1C(=O)C(=O)c2cccc(C)c21 | -47.4% | 32.6 µM [falling, single point] | 
COc1cccc2c1C(=O)C=C(C)C2=O | -71% | 29.1 µM [falling, single point] | 23.1 µM [falling, partial curve, poor fit]
COc1cccc(C(=O)Nc2nnc(-c3ccc(OC)cc3OC)s2)c1 | 6.3% |  | 0.116 µM [rising, full curve, poor fit]
CCOC(=O)c1sc(=S)n(C)c1NC(=O)c1ccc(OC)cc1 | 19.8% | 2.91 µM [rising, single point] | 
O=C(O)CCN1C(=O)c2ccc(NC(=O)c3cccs3)cc2C1=O | 1.65% |  | 29.1 µM [falling, single point]
CCCCCc1cc(=O)oc2c(C(CCN3CCCCC3)c3ccc4c(c3)OCO4)c(OC)cc(OC)c12 (stereo not given) | -65.4% | 29.1 µM [falling, single point] | 29.1 µM [falling, single point]
CCN(CC(=O)N1CCC(C(N)=O)CC1)S(=O)(=O)c1ccc(Cl)cc1 | -13% | 0.184 µM [falling, full curve, poor fit] | 0.146 µM [falling, full curve, poor fit]
C=CCn1c(SCc2ccc(F)cc2)nc2c1c(=O)[nH]c(=O)n2C | -2.08% |  | 9.2 µM [rising, single point]
CCN1CCN(c2c(Cl)cccc2NC(=O)c2ccc(Br)o2)CC1 |  | 1.3 µM [rising, partial curve, poor fit] | 2.91 µM [rising, partial curve]
O=C(O)c1ccc(NC(=O)c2cccc(C(=O)Nc3ccc(C(=O)O)cc3)n2)cc1 | 8.51% |  | 6.51 µM [rising, single point]
O=C(NCCCN1CCc2ccccc2C1)C1CCN(S(=O)(=O)N2CCCC2)CC1 | -9.63% |  | 
COc1ccc(-c2nnc(SCC(=O)N/N=C/c3ccccc3C(=O)O)n2-c2ccccc2)cc1 | -20.2% |  | 
COC(=O)C1=C(C(=O)c2ccccc2)C(c2ccccc2)n2nnnc2N1 (stereo not given) | -53.1% | 5.17 µM [falling, partial curve, poor fit] | 0.92 µM [falling, full curve]
CCOc1ccc(C(=O)N2CCCC(c3nc(-c4cccs4)no3)C2)cc1 (stereo not given) | 10.6% |  | 9.2 µM [rising, partial curve]
CC1CC(C)CN(c2ccc(C(=O)NCc3ccc4c(c3)OCO4)cc2[N+](=O)[O-])C1 (stereo not given) | -29.3% |  | 25.9 µM [falling, single point]
Cc1onc(-c2c(Cl)cccc2Cl)c1C(=O)NC(=S)N1CCOCC1 | -14.7% |  | 1.16 µM [falling, full curve]
CCCc1ccc(-c2cc(C(=O)Nc3ccc([N+](=O)[O-])cn3)c3ccccc3n2)cc1 | 21.8% |  | 
Cc1ccc(S(=O)(=O)N(C)C)cc1NC(=O)CSc1nc2ccccc2c(=O)n1CC1CCCO1 (stereo not given) |  |  | 0.651 µM [falling, full curve, poor fit]

SMILES | cell number change | AC50 [1] | AC50 [2]
COC(=O)C1CCN(C(=O)COC(=O)CSc2ccc(C(N)=O)cc2[N+](=O)[O-])CC1 | -25% |  | 20.6 µM [rising, single point]
COC(=O)c1cc(NC(=O)Cc2cc(OC)c(OC)c(OC)c2)cc(C(=O)OC)c1 | -29.2% | 0.103 µM [rising, single point] | 
CCn1nc(C(=O)Nc2ccc(C)c(C)c2)c(Cl)c1Cl | -19.5% |  | 2.06 µM [falling, partial curve, poor fit]
O=C(Cc1c(Cl)cccc1Cl)N1CCN(S(=O)(=O)c2cccs2)CC1 | 30.1% | 0.103 µM [rising, full curve, poor fit] | 0.0731 µM [rising, full curve, poor fit]
O=C(c1cccc(NS(=O)(=O)c2ccc(F)c(F)c2)c1)N1CCCCC1 | -7.15% |  | 
O=C(C1CCCO1)N1CCN(C(=S)Nc2ccccc2)CC1 (stereo not given) | 76.8% | 16.4 µM [rising, single point] | 1.84 µM [rising, single point]
CC(=O)[C@@]1(O)CCC2C3C=CC4=CC(=O)CC[C@]4(C)C3CC[C@@]21C (stereo not given in full) | 4.82% | 2.59 µM [rising, partial curve, poor fit] | 29.1 µM [rising, single point]
CN(C)C(/C=C/Nc1ccc(F)cc1F)=C(C#N)C#N | -81.4% | 18.4 µM [falling, partial curve, poor fit] | 23.1 µM [falling, partial curve]
COc1ccccc1N(CC(=O)Nc1ccc(Br)cc1F)S(=O)(=O)c1cccs1 | 98% | 6.51 µM [rising, partial curve] | 
CC(=O)OCC(=O)[C@@]1(O)CC[C@H]2[C@@H]3CCC4=CC(=O)C=C[C@]4(C)[C@H]3C(=O)C[C@@]21C | 2.78% |  | 
O=C(Cn1cnc2ccc(Cl)cc2c1=O)NC1CCS(=O)(=O)C1 (stereo not given) | -5% |  | 
Cc1ccc(CN(CC(=O)NCCc2ccccc2)C(=O)CCCC(=O)Nc2cc(C)on2)cc1 | 13.6% |  | 
COc1cc(CC(=O)Nc2ccc3c(c2)CCC3)cc(OC)c1OC | -41.2% | 0.92 µM [falling, partial curve] | 20.6 µM [falling, single point]
CC(C)(C)OC(=O)N/N=C/c1ccc(N2CCOCC2)s1 | -56.5% | 2.06 µM [falling, full curve] | 0.731 µM [falling, full curve, poor fit]
CCNC(=S)N/N=C/c1ccc(F)cc1 | 56.4% |  | 
O=C(Nc1nc(-c2ccccn2)cs1)c1ccc([N+](=O)[O-])o1 | -17% |  | 29.1 µM [falling, single point]
CC1(C)Cc2nc(NC3CCCCC3)c(C#N)cc2CO1 | -28.5% |  | 14.6 µM [falling, partial curve]
CCS(=O)(=O)NCC(c1cccnc1)N1CCN(c2ccccc2)CC1 (stereo not given) |  |  | 1.84 µM [rising, partial curve]
COc1ccc(CCN2CC(C(=O)Nc3cc(F)ccc3F)CC2=O)cc1OC (stereo not given) | -19.3% |  | 

An excerpt from the list above, as a working copy:
SMILES | cell number change | AC50 [1] | AC50 [2]
COC(=O)C1CCN(C(=O)COC(=O)CSc2ccc(C(N)=O)cc2[N+](=O)[O-])CC1 | -25% |  | 20.6 µM [rising, single point]
COC(=O)c1cc(NC(=O)Cc2cc(OC)c(OC)c(OC)c2)cc(C(=O)OC)c1 | -29.2% | 0.103 µM [rising, single point] | 
CCn1nc(C(=O)Nc2ccc(C)c(C)c2)c(Cl)c1Cl | -19.5% |  | 2.06 µM [falling, partial curve, poor fit]
O=C(Cc1c(Cl)cccc1Cl)N1CCN(S(=O)(=O)c2cccs2)CC1 | 30.1% | 0.103 µM [rising, full curve, poor fit] | 0.0731 µM [rising, full curve, poor fit]
O=C(c1cccc(NS(=O)(=O)c2ccc(F)c(F)c2)c1)N1CCCCC1 | -7.15% |  | 
O=C(C1CCCO1)N1CCN(C(=S)Nc2ccccc2)CC1 (stereo not given) | 76.8% | 16.4 µM [rising, single point] | 1.84 µM [rising, single point]
CC(=O)[C@@]1(O)CCC2C3C=CC4=CC(=O)CC[C@]4(C)C3CC[C@@]21C (stereo not given in full) | 4.82% | 2.59 µM [rising, partial curve, poor fit] | 29.1 µM [rising, single point]
CN(C)C(/C=C/Nc1ccc(F)cc1F)=C(C#N)C#N | -81.4% | 18.4 µM [falling, partial curve, poor fit] | 23.1 µM [falling, partial curve]
COc1ccccc1N(CC(=O)Nc1ccc(Br)cc1F)S(=O)(=O)c1cccs1 | 98% | 6.51 µM [rising, partial curve] | 
CC(=O)OCC(=O)[C@@]1(O)CC[C@H]2[C@@H]3CCC4=CC(=O)C=C[C@]4(C)[C@H]3C(=O)C[C@@]21C | 2.78% |  | 
O=C(Cn1cnc2ccc(Cl)cc2c1=O)NC1CCS(=O)(=O)C1 (stereo not given) | -5% |  | 
Cc1ccc(CN(CC(=O)NCCc2ccccc2)C(=O)CCCC(=O)Nc2cc(C)on2)cc1 | 13.6% |  | 
COc1cc(CC(=O)Nc2ccc3c(c2)CCC3)cc(OC)c1OC | -41.2% | 0.92 µM [falling, partial curve] | 20.6 µM [falling, single point]
CC(C)(C)OC(=O)N/N=C/c1ccc(N2CCOCC2)s1 | -56.5% | 2.06 µM [falling, full curve] | 0.731 µM [falling, full curve, poor fit]
CCNC(=S)N/N=C/c1ccc(F)cc1 | 56.4% |  | 
O=C(Nc1nc(-c2ccccn2)cs1)c1ccc([N+](=O)[O-])o1 | -17% |  | 29.1 µM [falling, single point]
